Experimental data taken from patent publication US20120142584A1, “NOVEL TRANSPORTER CONSTRUCTS AND TRANSPORTER CARGO CONJUGATE MOLECULES” (priority 2008, published 2012).
At least one peptide structure holds a part that was inferred or is arguable (an end, a ring closure or a residue).

Test system: Primary human white blood cells (WBC)
Assay: flow cytometry of transporter content in leukocyte populations
Format: cell-based
Conditions: 1 uM, 30 min at 37° C.

Compound: N=C(N)NCCC[C@@H](N)C(=O)N[C@@H](CCCCN)C(=O)N[C@@H](CCCCN)C(=O)N[C@@H](CCCNC(=N)N)C(=O)N[C@H](CCCNC(=N)N)C(=O)N[C@@H](CCC(N)=O)C(=O)N[C@@H](CCCNC(=N)N)C(=O)N[C@@H](CCCNC(=N)N)C(=O)N[C@H](CCCNC(=N)N)C(N)=O [r3-L-TAT, rKKRrQRRr]
- targeting of human leukocyte populations: binds to monocytes, neutrophils and lymphocyte T cells, and less efficiently to lymphocyte B cells
